According to patent publication US20090054235A1, “Benzoheterocyclylethylbenzamide derivatives” (priority 2005, published 2009):
Some results were stated once for a whole list of compounds, not compound by compound. At least one compound was matched to its structure with a doubt left.

System: Alternaria brassicae
Assay: In vivo test on Alternaria brassicae (preventive spray on radish plants)
Conditions: radish plants (Pernot variety), grading 6 to 7 days after contamination, in comparison with control plants

Compound | protection (dose of 330 ppm) | protection (dose of 500 ppm)
O=C(NCCc1c[nH]c2ccc(Br)cc12)c1ccccc1C(F)(F)F [N.[2-(5-bromo-1H-indol-3-yl)ethyl]-2-(trifluoromethyl)benzamide] | less than 30% | –
O=C(NCCc1c[nH]c2ccc(Br)cc12)c1ccccc1Cl [N.[2-(5-bromo-1H-indol-3-yl)ethyl]-2-chlorobenzamide] | – | less than 30%
O=C(NCCc1c[nH]c2ccc(Br)cc12)c1ccccc1C(F)F [N.[2-(5-bromo-1H-indol-3-yl)ethyl]-2-(difluoromethyl)benzamide] | – | less than 30%
